Laboratory results taken from patent US5965524A, “Analogs of viscosin and uses thereof” (Peptide Technologies Corporation, priority 1994, dated 1999).
Part of at least one peptide drawing is inferred or uncertain, most often the ends.

Tested on: Herpes Simplex Virus 2 (HSV-2)
Assay: Inhibition of HSV-2 growth in cultured cells
Assay type: cell-based
Conditions: lowest concentration at which 50% of the viruses are rendered noninfective

`CCCCCCC[C@@H](O)CC(=O)N[C@@H](CC(C)C)C(=O)N[C@H](CCC(=O)O)C(=O)N[C@@H](C(=O)N[C@@H](C(=O)N[C@@H](CC(C)C)C(=O)N[C@H](CO)C(=O)N[C@@H](CC(C)C)C(=O)N[C@H](CO)C(=O)N[C@H](C(=O)O)[C@@H](C)CC)C(C)C)[C@@H](C)O` [Compound 5, Viscosic Acid] was tested, and the “HSV-2 LD50” value was over 100 µg/mL.
